The values below come from PubChem BioAssay AID493014 (National Center for Advancing Translational Sciences (NCATS), 2011).

The nature of this assay: qHTS Assay to Find Inhibitors of Chronic Active B-Cell Receptor Signaling. The following applies: ABC-DLBCL IkBa-CBG/CBR reporter, luminescence ratio (green luciferase fused to IkBa over red control in TMD8 lymphoma cells), 4 h. In outline:
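Doxycycline induced both beetle luciferases in TMD8 lymphoma cells; IKK-driven degradation limits the IkappaBalpha-fused green signal, while red luminescence normalises for cell number and nonspecific effects. Compounds tested up to 46 uM, 4 hrs.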
In general terms: Quantitative high-throughput screening tests each substance at several concentrations.

[1] abbreviates: measured here: CBR red luminescence, cell number.
Setting [2] is: measured here: IkBa-CBG green luminescence.

The other results are listed elsewhere or left out. The main result of the screen is listed elsewhere. These columns were measured beside it and carry no call. Compounds called inactive in the main read-out are mostly missing here. Words in brackets tell the shape of the fitted curve; partial curves, single points and poor fits give uncertain potencies.

The AC50 is the concentration giving half of the maximal activity seen. Consider `COc1cc(N2C(=O)C=CC2=O)c(OC)cc1Cl`, for which the AC50 under setting [1] is 17.8 µM [falling, partial curve].

Turning to `COc1ccc2nc(SCC(=O)N3CCN(c4ccc(F)cc4)CC3)c(C#N)cc2c1`, the AC50 under setting [1] is 16.4 µM [falling, partial curve].

`CCOC(=O)C1=C(CC)Nc2ccccc2N=C1NC(=O)c1ccc(C)c(S(=O)(=O)N2CCOCC2)c1`: the AC50 under setting [1] is 1.84 µM [rising, partial curve, poor fit].

Turning to `O=S(=O)(c1ccc(OC(F)(F)F)cc1)N1CCC(O)(c2cccc(C(F)(F)F)c2)CC1`, the AC50 under setting [1] was 11.2 µM [falling, partial curve].

Regarding `NNC(=O)c1[nH]c2ccc([N+](=O)[O-])cc2c1-c1ccccc1`, the AC50 reads like this: under setting [1], 5.62 µM [rising, full curve]; under setting [2], 4.47 µM [falling, full curve].

Take `CCOC(=O)N1CCN(C(=O)CSCC(=O)Nc2nc(-c3cccs3)cs2)CC1`: under setting [1], the AC50 is 9.2 µM [falling, partial curve, poor fit].

For `O=C(c1ccc(Cl)cc1)N1N=CCC1(O)c1ccc(Cl)cc1` (stereo not drawn), the AC50 under setting [1] is 12.6 µM [falling, partial curve].

For `O=[N+]([O-])c1ccc(/C=C/c2ccc3cccc([N+](=O)[O-])c3n2)cc1`, the AC50 under setting [1] was 2.31 µM [rising, full curve].

Regarding `O=c1nc(/C=C/c2cc([N+](=O)[O-])ccc2Cl)cc(C(F)(F)F)[nH]1`, the AC50 under setting [1] was 0.259 µM [falling, full curve, poor fit].

Consider `CCOc1ccc(NC(=O)CSc2n[nH]c(N)n2)c([N+](=O)[O-])c1`, for which the AC50 under setting [1] is 18.4 µM [rising, partial curve, poor fit].

For the compound `CC(=O)c1c(-c2ccccc2)[nH]c2ccccc12`, the AC50 under setting [1] was 20 µM [falling, partial curve, poor fit].

`Cc1ccc(/C=C2/C(=O)N=C(N)N2C)s1`: under setting [1], the AC50 was 10.3 µM [rising, partial curve, poor fit].

`Fc1ccc(CN2CCN(C(=S)NCCc3ccccc3)CC2)c(Cl)c1`: the AC50 under setting [1] is 35.5 µM [falling, single point].

Regarding `COc1ccc(C(=O)Nc2cccc(NC(=O)c3cccs3)c2)cc1`, the AC50 under setting [1] was 2.82 µM [falling, partial curve].

Turning to `Nc1nc(SCC(=O)N2CCc3ccccc3C2)[nH]c(=O)c1-c1ccccc1`, under setting [1], the AC50 was 1.84 µM [falling, full curve, poor fit].

Take `Cc1occc1C(=O)OCC(=O)Nc1ccc(F)cc1`: the AC50 under setting [1] is 14.1 µM [falling, partial curve].

In the case of `CCOC(=O)c1c(C)n(C)c2ccc(OC)c(NC(=O)CN3CCN(C4CCCCC4)CC3)c12`, under setting [1], the AC50 was 4.11 µM [rising, partial curve].

On to `Cc1c(NC(=O)c2ccc3c(c2)OCO3)cccc1-c1nc2ccccc2o1`, for which, under setting [1], the AC50 is 6.31 µM [falling, full curve].

Consider `CCCCCCCSc1nc(N)cc(=O)[nH]1`, for which the AC50 under setting [1] is 7.31 µM [rising, partial curve, poor fit].

In the case of `Cc1ccc(C(=O)N2CCCC(c3ccc(Cl)cc3)=N2)cc1`, under setting [1], the AC50 was 1.41 µM [falling, full curve].

Turning to `O=C(CSc1nc2ncc(Cl)cc2[nH]1)c1c[nH]c2ccccc12`, the AC50 reads like this: under setting [1], 35.5 µM [falling, single point]; under setting [2], 35.5 µM [rising, partial curve, poor fit].

With `Cc1ccc(S(=O)(=O)c2nc(S(=O)(=O)c3ccccc3)sc2N2CCN(CCO)CC2)cc1`, under setting [1], the AC50 was 28.2 µM [falling, single point].

With `CC(=O)Cc1c(C(=O)O)c(C)nn1-c1ccccc1`, the AC50 under setting [1] is 15.8 µM [rising, single point].

For the compound `O=C(CSCc1ccc([N+](=O)[O-])cc1)Nc1ccc(S(=O)(=O)N2CCCCCC2)cc1`, the AC50 under setting [1] was 11.6 µM [falling, partial curve, poor fit].

As for `CN(C(=O)CSc1nncc2ccccc12)c1ccccc1`, the concentration at half-maximal activity (AC50) under setting [1] is 16.4 µM [falling, single point].

Consider `CN=C1C=C/C(=N/N=c2\ccn(O)cc2C)C=C1C`, for which the AC50 under setting [1] was 22.4 µM [rising, partial curve].

In the case of `C=CCNC(=S)NNC(=O)C(CCCC)CC(C)(C)O` (stereo not drawn), the AC50 under setting [1] is 32.6 µM [falling, single point] and the AC50 under setting [2] was 29.1 µM [falling, single point].

As for `O=C(NCc1ccco1)c1ccc2c(c1)N(Cc1ccccc1)CCS2`, the AC50 under setting [1] is 35.5 µM [falling, single point].

Consider `O=C(Nc1nccs1)c1cn2ccccc2n1`, for which the AC50 under setting [1] was 1.58 µM [falling, full curve, poor fit].

`COc1cccc2sc(Nc3nc(-c4ccccn4)cs3)nc12`: the AC50 under setting [1] is 5.62 µM [rising, partial curve, poor fit] and the AC50 under setting [2] is 5.62 µM [falling, single point].

Consider `CC(=O)N1CCN(c2ccc(NC(=O)c3ccccc3Br)cc2Cl)CC1`, for which, under setting [1], the AC50 is 4.11 µM [falling, partial curve, poor fit].

In the case of `CCOC(=O)[C@@H]1[C@H]2COc3ccc(Br)cc3[C@@H]2N2C(=O)N(c3cccc(F)c3)C(=O)[C@@]12C`, the AC50 under setting [1] is 35.5 µM [falling, single point].

For the compound `O=C(CSc1nc2ccccc2c(=O)n1-c1ccccc1)N1CCCC1`, under setting [1], the AC50 is 16.4 µM [rising, single point].

For the compound `COCCNC(=O)/C(C#N)=C\c1ccc(CNS(=O)(=O)c2ccc(C)cc2)o1`, the AC50 under setting [1] was 0.0891 µM [falling, full curve, poor fit].

As for `CC(C)=CCCC(C)NC(=O)NC1CCCCC1` (stereo not drawn), the AC50 under setting [1] was 10.3 µM [rising, partial curve, poor fit].

Take `Cc1cc(C)cc(N=Cc2[nH]c3ccc(Br)c(Cl)c3c2O)c1`: under setting [1], the AC50 is 20.6 µM [falling, partial curve, poor fit].

Consider `O=C(Nc1ccsc1C(=O)O)c1ccc(Cl)cc1`, for which the AC50 under setting [1] was 0.891 µM [falling, full curve].

Consider `O=C(Nc1nnc(-c2ccc(Cl)cc2)o1)C1CCCCC1`, for which the AC50 under setting [1] was 31.6 µM [rising, single point].

For the compound `Cc1cc(SCC(=O)Nc2cccc(S(=O)(=O)NC3=NCCCCC3)c2)c(C)cc1Br`, under setting [1], the AC50 is 16.4 µM [falling, partial curve].
